We go through 66 sequences from PubChem BioAssay AID1347423 (Functional Genomics Laboratory (NCATS/FGL), 2020).

The campaign covered roughly 52,000 sequences. About 210 (0.4%) were called active.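 How the source made its calls: active means gene whose silencing raises cell survival under the drug, median off-target-corrected z-score across its silencing RNAs 2 or more; inactive means the rest.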 This is one part of the list.

This assay can be described thus: Resistance to Poly (ADP-Ribose) Polymerase inhibitor: Gene Identification via Genome-wide siRNA Screen. Particulars: mouse BRCA2 R2336H ES cells, olaparib, CellTiter-Glo viability; active compounds read high. The gist of the method:
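Mouse BRCA2 R2336H ES cells were reverse-transfected with siRNA (20 nM final), treated at 48 h with 500 nM olaparib, and read by CellTiter-Glo after 72 h. Scores: MAD-based z per siRNA, median per gene, seed off-target correction.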
A general note: Cellular ATP, detected with luciferase, serves as a proxy for viable cell number.
As for “GCAGCCUCGUUUAACUAAATT against 1700034P14Rik”, the z-score was inactive: -0.967. The value for GCUACCGUGGGCGAUGUAATT against Dbi was inactive: -2.69. Turning to “CCACACCUAUCUUCUACGUTT against C730026E21Rik”, the z-score was inactive: 0.164. For the sequence CCUUUGUGGAAUACGUCAUTT against Fa2h, the z-score is inactive: 0.0687.

GGACAAAGGGAUAAUGCUGTT against BC008184: the z-score was inactive: 0.0336. Regarding AGUCUACAACUACUCCUGUTT against Glrx2, the z-score was inactive: 1.01. As to GAGGUCAUUAUACCAUUGGTT against Tuba7, the z-score was inactive: -0.352. With GGAGCAAGCCUUUAAAAGATT against Hnrpk, the z-score is inactive: -2.22. Under GGAGAUCACACAACAUUUUTT against Ndrg1 stands inactive: -1.78; under “GCCAAGUGUAGGGACUCAGTT against A630052C17Rik”, inactive: -1.44.

Consider GGCCUCCCUACUUGAAGACTT against Crip3, for which the z-score is active: 1.71.

As for GGAAGAUUUACAAAAACUGTT against BC036718, the z-score is inactive: -0.119. As to GGUUAAAUAUACCUAAGGATT against Spo11, the z-score was inactive: 0.83. Under GGCCAAACAUAGAACUGGUTT against Mbd3l2 stands inactive: -1.12; under CCAUAUUCAAGGGUGAAAUTT against Dsg3, inactive: 0.197; under GCGACAUCACAAGAAUCGATT against Fancd2, inactive: 1.7. The value for GGGUUGACUUCAAGAACAUTT against Cxcl2 was inactive: -0.429; that for “GGAAAGCGAUACCUAAACATT against 9330174J19Rik” was inactive: -1.67. The value for GGACAACUCAGAUUGGACUTT against Adprhl2 was inactive: -1.57; that for GGAAUCUUGUUAGCUAUGGTT against Olfr615 was inactive: -0.943. As for GGAGCCCUUUCUACUGGUGTT against Snn, the z-score is inactive: -0.955.

For GGAAAAUGUCCCACUUUUATT against Olfr70, the z-score was inactive: 0.292.

Turning to “CCCUGGUUGUUUGUAGAGUTT against 1700052N19Rik”, the z-score is inactive: 1.13. In the case of GGAAGAUCACAGAAUUCUCTT against Abp1, the z-score was inactive: 0.0538. Under CCAGCUAGAAAAUCUCUCCTT against Cnn2 stands inactive: 0.00018; under GCAGAUGUCAUGGUAACUCTT against Suv420h1, inactive: -0.316. The value for “GGAGCGGAAUUUAUGGCGATT against 6720416L17Rik” was inactive: 0.28; that for GGUCUCAGACAAAGAUGAATT against Rg9mtd1 was inactive: -0.136. Under GGAAGUUUUGAAACUUGUUTT against Gabrp stands inactive: -0.0545; under GGGAUUCCUGGACAACAUUTT against Glce, inactive: -2.07; under GGUGGAUGAAGUAAACCAGTT against Chrna3, inactive: -0.208.

In the case of GCCUGGAGACUACAUAUCCTT against Cdc20, the z-score is inactive: -2.37. Under GGACCUGGAUCUAUCCUACTT against Lrfn1 stands inactive: 0.431; under GCUGUGACAGAAGCUUUCGTT against Vars2l, inactive: 0.0993; under GGUCAGUCAACAUGAACUUTT against Acad9, inactive: 1.49.

Consider “GGAGGAGUGCAAGGACUUUTT against 0610009H04Rik”, for which the z-score is inactive: -0.98. The value for “GCGGCUCACAAGAGUAUCGTT against 2310026E23Rik” was inactive: -2.05; that for “GGAAAUUCAAAAAGUGUGUTT against 2010301N04Rik” was inactive: 1.27; that for “GGUCAGAGAAAGAUGUAAATT against 1300002C08Rik” was inactive: -0.203. For “GGCAUGACAUGUAGAUGGCTT against 1700055N04Rik”, the z-score is inactive: -0.354. Consider GGCUUCCUCCACUCUUUCCTT against Rhbg, for which the z-score was inactive: 0.815.

Consider GGGUGACAACCAAAGACUGTT against Mill1, for which the z-score is inactive: -0.9. The value for GGUGGAAGACAAGAGGAUATT against Sytl5 was inactive: -0.348; that for GCAUUGAAAUCGUUAAAGCTT against AI467484 was inactive: 0.56. For GGCUGCUCUAUUAUAAGAATT against Centa2, the z-score was inactive: 0.11. The value for GGAAGUUGGUGAGCUGGUATT against Ccl17 was inactive: -1.95; that for GGGACAAGAUCUGAACUUCTT against Rgl3 was inactive: -0.136. The value for CCUGUUAGCUGAAUUCAACTT against Entpd4 was inactive: 0.86; that for UCAUUGAGAAAGGAGAAGATT against Cox17 was inactive: 0.93.

In the case of CGUAGACCUUUUCCACUACTT against Plod1, the z-score is inactive: 1.33.

For the sequence GCUUACCUAACUCUUAAACTT against Gpr126, the z-score was inactive: -0.129. For the sequence “GCCUCCUUGUCUGGAAAUUTT against 9130023F12Rik”, the z-score is inactive: -0.502. The value for GUAGAAGAGUUUCCCACGGTT against LOC432555 was inactive: 1.88; that for “GGCAUGAAACCUCCAAAGCTT against 1520401A03Rik” was inactive: 0.769; that for CCUCAAUGAGGUCCUGAUGTT against Olfr108 was inactive: -1.01.

Consider GGAUGAAAAAGCUCACUUUTT against Srms, for which the z-score is inactive: -1.36. In the case of GGACAUGAAGAUCAAGUCCTT against Rps2, the z-score is inactive: -0.132.

With GGUCAGAACAACGACAAGUTT against Tpcn1, the z-score was inactive: 1.12. The value for “GGCCAAGAAGGUGUGGUACTT against 2610510L01Rik” was inactive: -0.289; that for GCUCCUAUGCAAACAUUGCTT against Olfr1390 was inactive: 0.016; that for GGUGGAAGGCACUUUUAUUTT against Zmpste24 was inactive: 0.649. Regarding GGCUUUUUCUACUUGUUCUTT against Olfr768, the z-score was inactive: 0.0117. Under GCGAUGUGGACAGAAGUACTT against Cyba stands inactive: -1.06; under “GCUCUCCUCAAGUCAAGUGTT against D19Ertd386e”, inactive: -1.88; under CCUGUCUUCUCUCUUGUAUTT against Zswim4, inactive: -1.27.

On to GGUGUCUCAUCAUGUUUCCTT against Ccl28, for which the z-score is inactive: 0.22.
